Measurements: article PMC10598014
No constants are given. Whether binding was seen depends on the method and setting. In cells and extracts the contact can be indirect. Some entries that bind do so weakly or less than the wild type.

Protein sequences, listed by entry. Tags and fused reporters are not part of them.
UniProt Q9BWT3: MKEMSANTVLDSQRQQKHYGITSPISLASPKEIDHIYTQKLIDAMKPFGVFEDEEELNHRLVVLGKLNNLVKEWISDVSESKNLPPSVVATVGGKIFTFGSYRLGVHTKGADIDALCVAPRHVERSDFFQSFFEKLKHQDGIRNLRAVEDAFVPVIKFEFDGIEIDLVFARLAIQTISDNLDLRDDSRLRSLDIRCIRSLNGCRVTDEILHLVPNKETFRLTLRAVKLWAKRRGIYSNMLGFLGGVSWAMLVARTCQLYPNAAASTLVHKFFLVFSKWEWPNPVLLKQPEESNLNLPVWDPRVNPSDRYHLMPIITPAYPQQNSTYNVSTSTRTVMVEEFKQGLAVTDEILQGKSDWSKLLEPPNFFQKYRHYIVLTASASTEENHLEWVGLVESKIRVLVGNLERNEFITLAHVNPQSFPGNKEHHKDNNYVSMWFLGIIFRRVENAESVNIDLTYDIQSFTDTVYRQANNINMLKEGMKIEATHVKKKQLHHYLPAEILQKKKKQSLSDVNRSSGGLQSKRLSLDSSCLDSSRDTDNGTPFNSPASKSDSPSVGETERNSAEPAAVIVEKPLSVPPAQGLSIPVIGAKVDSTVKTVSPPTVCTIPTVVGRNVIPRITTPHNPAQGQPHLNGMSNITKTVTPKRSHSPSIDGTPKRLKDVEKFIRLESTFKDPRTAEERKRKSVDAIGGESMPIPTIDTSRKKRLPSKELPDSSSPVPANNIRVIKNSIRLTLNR
UniProt O60293: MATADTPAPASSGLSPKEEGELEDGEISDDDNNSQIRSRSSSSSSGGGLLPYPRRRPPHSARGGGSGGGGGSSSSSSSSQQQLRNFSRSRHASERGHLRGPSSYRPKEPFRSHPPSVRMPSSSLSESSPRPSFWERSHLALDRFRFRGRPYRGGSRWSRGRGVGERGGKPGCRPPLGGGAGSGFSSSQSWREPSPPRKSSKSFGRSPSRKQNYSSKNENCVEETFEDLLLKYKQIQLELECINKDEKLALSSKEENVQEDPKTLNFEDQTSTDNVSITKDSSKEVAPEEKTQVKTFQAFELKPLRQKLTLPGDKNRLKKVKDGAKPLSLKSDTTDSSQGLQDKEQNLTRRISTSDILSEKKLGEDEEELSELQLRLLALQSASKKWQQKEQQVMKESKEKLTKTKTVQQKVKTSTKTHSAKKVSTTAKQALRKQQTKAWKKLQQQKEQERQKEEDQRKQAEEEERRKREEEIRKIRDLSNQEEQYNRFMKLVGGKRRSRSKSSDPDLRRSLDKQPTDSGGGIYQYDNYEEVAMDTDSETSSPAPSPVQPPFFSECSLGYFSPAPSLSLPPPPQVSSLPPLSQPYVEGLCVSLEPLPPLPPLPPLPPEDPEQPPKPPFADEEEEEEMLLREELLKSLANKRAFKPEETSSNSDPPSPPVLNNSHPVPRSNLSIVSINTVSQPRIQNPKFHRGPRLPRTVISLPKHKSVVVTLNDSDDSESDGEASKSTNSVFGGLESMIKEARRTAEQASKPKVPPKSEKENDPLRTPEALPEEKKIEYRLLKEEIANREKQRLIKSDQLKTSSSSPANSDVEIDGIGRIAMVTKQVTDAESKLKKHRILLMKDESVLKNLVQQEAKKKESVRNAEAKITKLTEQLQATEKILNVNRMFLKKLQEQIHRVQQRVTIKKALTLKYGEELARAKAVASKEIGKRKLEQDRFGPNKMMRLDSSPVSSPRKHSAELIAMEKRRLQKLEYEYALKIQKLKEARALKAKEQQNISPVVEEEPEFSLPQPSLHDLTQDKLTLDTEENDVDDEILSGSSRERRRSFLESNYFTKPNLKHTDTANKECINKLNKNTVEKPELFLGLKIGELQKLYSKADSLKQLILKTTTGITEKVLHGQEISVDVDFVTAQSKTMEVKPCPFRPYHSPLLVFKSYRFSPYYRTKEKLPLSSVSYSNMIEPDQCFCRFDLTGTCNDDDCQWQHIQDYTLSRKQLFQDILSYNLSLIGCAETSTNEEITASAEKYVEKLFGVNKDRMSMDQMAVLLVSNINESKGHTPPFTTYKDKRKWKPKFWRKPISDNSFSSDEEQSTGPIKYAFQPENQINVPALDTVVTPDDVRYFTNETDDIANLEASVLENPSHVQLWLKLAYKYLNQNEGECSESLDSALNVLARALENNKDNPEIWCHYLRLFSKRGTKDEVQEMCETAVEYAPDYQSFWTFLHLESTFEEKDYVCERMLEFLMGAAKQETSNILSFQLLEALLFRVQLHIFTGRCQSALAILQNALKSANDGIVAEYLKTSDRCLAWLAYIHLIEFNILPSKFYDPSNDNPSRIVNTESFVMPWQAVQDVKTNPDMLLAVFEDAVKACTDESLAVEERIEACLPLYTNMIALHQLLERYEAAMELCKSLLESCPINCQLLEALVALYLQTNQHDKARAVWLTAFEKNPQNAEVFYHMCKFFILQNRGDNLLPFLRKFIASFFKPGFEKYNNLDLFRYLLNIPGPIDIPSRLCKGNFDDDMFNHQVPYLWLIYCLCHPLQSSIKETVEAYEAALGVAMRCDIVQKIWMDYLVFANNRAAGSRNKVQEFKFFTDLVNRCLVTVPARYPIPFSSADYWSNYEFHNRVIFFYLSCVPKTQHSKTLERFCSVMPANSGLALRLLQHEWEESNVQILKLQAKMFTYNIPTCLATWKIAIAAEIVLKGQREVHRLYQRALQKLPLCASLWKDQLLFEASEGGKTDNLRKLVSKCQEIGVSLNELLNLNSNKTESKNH

T1: MTR4 (human (endogenous in HEK-293T and HeLa)) (UniProt P42285)
T1 sequence: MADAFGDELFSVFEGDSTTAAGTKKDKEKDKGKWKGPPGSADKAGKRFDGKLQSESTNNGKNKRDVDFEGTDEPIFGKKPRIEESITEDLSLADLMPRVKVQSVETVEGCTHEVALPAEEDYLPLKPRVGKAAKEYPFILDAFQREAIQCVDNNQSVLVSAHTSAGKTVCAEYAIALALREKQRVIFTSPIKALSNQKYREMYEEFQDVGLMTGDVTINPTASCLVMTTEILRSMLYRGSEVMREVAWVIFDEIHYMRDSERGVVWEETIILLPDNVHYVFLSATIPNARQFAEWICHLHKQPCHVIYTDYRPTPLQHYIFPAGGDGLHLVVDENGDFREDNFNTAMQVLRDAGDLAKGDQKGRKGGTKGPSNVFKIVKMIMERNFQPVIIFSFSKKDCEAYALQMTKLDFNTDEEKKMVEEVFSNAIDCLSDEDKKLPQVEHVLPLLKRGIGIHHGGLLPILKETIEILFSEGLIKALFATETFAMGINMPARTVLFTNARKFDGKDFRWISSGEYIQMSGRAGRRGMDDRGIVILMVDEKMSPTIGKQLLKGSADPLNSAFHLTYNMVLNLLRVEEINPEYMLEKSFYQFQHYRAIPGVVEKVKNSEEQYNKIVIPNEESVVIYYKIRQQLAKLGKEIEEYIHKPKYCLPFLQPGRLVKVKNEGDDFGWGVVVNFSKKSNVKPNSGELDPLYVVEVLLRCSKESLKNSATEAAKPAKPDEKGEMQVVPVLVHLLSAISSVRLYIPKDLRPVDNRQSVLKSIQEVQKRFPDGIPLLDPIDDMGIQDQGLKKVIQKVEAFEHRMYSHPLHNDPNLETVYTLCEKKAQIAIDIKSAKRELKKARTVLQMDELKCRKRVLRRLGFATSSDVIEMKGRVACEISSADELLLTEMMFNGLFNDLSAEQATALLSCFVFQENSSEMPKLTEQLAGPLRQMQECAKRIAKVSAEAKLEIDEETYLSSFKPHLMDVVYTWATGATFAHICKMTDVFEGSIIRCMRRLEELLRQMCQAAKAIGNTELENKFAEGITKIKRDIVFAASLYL


Legend:
[1] = biological target: polyA polymerase gamma (PAPγ) (human (endogenous in HEK-293T and HeLa)) (UniProt Q9BWT3); assay: co-IP; as the co-IP from HeLa nuclear extracts, immunoprecipitates incubated with RNAse A/T cocktail (1.2 μL/mL of immunoprecipitation buffer) for 30 min at RT, followed by 5 washes
[2] = biological target: polyA polymerase gamma (PAPγ) (human (endogenous in HEK-293T and HeLa)) (UniProt Q9BWT3); assay: co-IP; endogenous proteins; HeLa nuclear extracts treated with micrococcal nuclease; 50 mM tris pH 7.6, 150 mM NaCl, 1% NP-40; 2 μg antibody overnight at 4 °C, Protein A Dynabeads; IgG control; immunoblot
[3] = biological target: T1, MTR4 (human (endogenous in HEK-293T and HeLa)); assay: co-IP; HeLa cell lysates in RIP buffer (20 mM HEPES pH 7.5, 150 mM NaCl, 2.5 mM MgCl2, 250 mM sucrose, 0.05% NP-40, 0.5% Triton X-100, RNasin); 2 μg antibody overnight at 4 °C, Dynabeads Protein A; immunoprecipitates of the RIP experiment
[4] = biological target: ZFC3H1 (human (endogenous in HeLa)) (UniProt O60293); assay: condition: only with RNAse A/T cocktail (1.2 μL/mL of immunoprecipitation buffer); co-IP; as the co-IP from HeLa nuclear extracts, immunoprecipitates incubated with RNAse A/T cocktail (1.2 μL/mL of immunoprecipitation buffer) for 30 min at RT, followed by 5 washes
[5] = biological target: polyA polymerase gamma (PAPγ) (human (endogenous in HEK-293T and HeLa)) (UniProt Q9BWT3); assay: as above

Row | binding [1] | binding [2] | binding [3] | binding [4] | binding [5] | Molecule
1 | binds | binds | binds |  |  | ZFC3H1 (from UniProt O60293 1-1989)
2 |  | binds |  | no binding | no binding | PABPN1 (protein, UniProt Q86U42 1-306) MAAAAAAAAAAGAAGGRGSGPGRRRHLVPGAGGEAGEGAPGGAGDYGNGLESEELEPEELLLEPEPEPEPEEEPPRPRAPPGAPGPGPGSGAPGSQEEEEEPGLVEGDPGDGAIEDPELEAIKARVREMEEEAEKLKELQNEVEKQMNMSPPPGNAGPVIMSIEEKMEADARSIYVGNVDYGATAEELEAHFHGCGSVNRVTILCDKFSGHPKGFAYIEFSDKESVRTSLALDESLFRGRQIKVIPKRTNRPGISTTDRGFPRARYRARTTNYNSSRSRFYSGFNSRPRGRVYRGRARATSWYSPY
